Measured values: PubChem BioAssay AID588497 (NMMLSC, 2011)
The campaign covered roughly 360,000 compounds. About 780 (0.22%) were called active. The shares of active, inactive and inconclusive entries below differ from those in the screen. No stated cut-off is given here; in the data, active means inhibition above about 35% (passing the limit was not always enough); inconclusive means no clear call, values can overlap the other calls.

The compounds below were run on Botulinum neurotoxin type F light chain protease (Clostridium botulinum) (assay: BoNT/F light chain protease inhibitors, primary screen, biochemical, flow cytometry, MLPCN library (AID 588497; further: plate controls were buffer without enzyme for full effect and enzyme alone for no effect)). Settings: Multiplex microsphere protease cleavage assay, at 10 µM, active compounds read high.

Structure (SMILES) | inhibition
COc1ccc(OC)c(-n2cnnn2)c1 | inconclusive: 4.8%
CN(c1ccc(Cl)cc1)S(=O)(=O)c1nnc(NC(=O)C(C)(C)C)s1 | inconclusive: -19.2%
Cc1ccc(/C=C2\SC(=S)N(NS(=O)(=O)c3ccc(C)cc3)C2=O)cc1 | inconclusive: -18.2%
COC(=O)C1Cc2ccccc2CN1S(=O)(=O)c1ccc(C)cc1 (stereo not drawn) | active: 35.7%
NNC(=O)CSc1nnc(-c2ccccc2)n1-c1ccccc1 | inconclusive: -8.5%
O=S(=O)(O)c1ccc(N=Nc2ccccc2)cc1 | inconclusive: 22.2%
O=C(O)c1cc2[nH]c3c(c2cc1Cl)CCCC3 | inconclusive: -5.4%
COc1ccccc1N1CCN(C2CC(=O)N(c3ccc(Cl)cc3)C2=O)CC1 (stereo not drawn) | inconclusive: 18.4%
COc1ccc(/C=N/NC(=O)c2cccnc2)cc1CSc1ccccn1 | inconclusive: -76.1%
C=CCOc1ccccc1CN1CCCN(C)CC1 | inconclusive: 19.8%
Nc1nc(Nc2ccc(Cl)cc2)c(NC=O)c(=O)[nH]1 | inconclusive: -38.1%
CN1CCN(c2ccc(CNS(=O)(=O)c3ccccc3)cc2)CC1 | inconclusive: 66.6%
CCNc1nc(NCC)nc(-n2nc(C)cc2C)n1 | inactive: 0.4%
CCOC(=O)/C=C1\SCC(=O)N1CC(=O)Nc1ccc(OC)c(OC)c1 | inactive: -2.6%
N=C(N)SCC1=CCS(=O)(=O)C1 | inconclusive: 24.5%
Cc1cc(/C=C2/SC(=S)N(c3cccc(C(F)(F)F)c3)C2=O)c(C)n1-c1cccnc1 | active: 83.5%
CCCCCn1c(N)c(-c2nc3ccccc3s2)c2c([N+](=O)[O-])nn(CC)c(=O)c21 | inactive: -12.7%
Cc1ccc(C(=O)N2CCN(S(=O)(=O)c3ccccc3)CC2)cc1 | inactive: -10.8%
COc1ccc(C(=O)N/N=C(\C)CC(=O)Nc2ccc(N(C)C)cc2)c(OC)c1 | inconclusive: -30%
CCOc1cccc(OCCCCN2CCCCC2)c1 | inactive: 0.5%
OC[C@@H]1CN(Cc2ccc(-c3ccccc3)cc2)C[C@H](n2cnc3c(NCc4ccc(F)cc4)ncnc32)O1 | inactive: -5.2%
O=C(NCCCN1CCOCC1)C(c1ccccc1)c1ccccc1 | inconclusive: -18.3%
CCOC(=O)c1c(NC(=O)c2cc(-c3cccc(O)c3)on2)sc(C(C)=O)c1C | inactive: -6.5%
Cc1cc(S(=O)(=O)NCC(c2ccc3c(c2)OCO3)N2CCOCC2)ccc1F (stereo not drawn) | inconclusive: -19.4%

Structure (SMILES) | inhibition
Cc1ccc(NC(=O)C2CC2c2ccccc2)c([N+](=O)[O-])c1 (stereo not drawn) | inconclusive: -52.8%
COC(=O)C1=C(N)OC2=C(C(=O)CCC2)C1c1ccccc1OC (stereo not drawn) | inconclusive: 99.1%
O=C1CC(c2ccco2)CC(O)=C1C=NCCO (stereo not drawn) | inconclusive: 15.7%
Cc1c(NC(=O)CSc2nncc3ccccc23)c(=O)n(-c2ccccc2)n1C | inactive: 1.7%
O=C(Oc1c(-c2ccccc2)c(=O)n2c3c(cccc13)CC2)c1ccc(Cl)cc1 | inconclusive: 54.8%
Cc1ccc(NC(=O)N2CCC(C(=O)NCCC3=CCCCC3)CC2)cc1 | inactive: -3.2%
Cc1cc2nc(/C=C/c3cccnc3)[nH]c2cc1C | inconclusive: -18.2%
O=C(CC(=O)c1ccccc1)Nc1ccc([N+](=O)[O-])cc1 | inactive: -2.2%
CCc1nnc(NC(=O)CSc2nnc(-c3cc4ccccc4cc3O)n2CC)s1 | inactive: -6.7%
Cc1ccc(-c2noc(CCCN3C(=O)c4ccccc4C3=O)n2)cc1 | inactive: -5.8%
Cc1cc(=O)[nH]c(SCC(=O)N2CCc3ccccc3C2)n1 | inactive: -0.3%
COc1ccc2nc(SCC(=O)NCCc3ccccc3)[nH]c2c1 | inconclusive: -88%
O=C(NNC(=S)NC1CC2C=CC1C2)c1ccncc1 (stereo not drawn) | inconclusive: -58.9%
NC(=O)C1(N2CCCCC2)CCN(C2CC(=O)N(Cc3cccs3)C2=O)CC1 (stereo not drawn) | inconclusive: -2.7%
Cc1c(C(=O)O)c(C(=O)O)c2n1CCS2 | inconclusive: -126%
CCOP(=O)(C#CC(C)(C)C)C(C)(O)c1ccccc1 (stereo not drawn) | inconclusive: -5.1%
COc1cc(/C(C#N)=C/c2ccccc2)c([N+](=O)[O-])cc1OC | inconclusive: 6%
Cn1nccc1NS(=O)(=O)c1ccc(NC(=O)C(F)(F)F)cc1 | inconclusive: 4.7%
COc1ccccc1C(=O)NCCSCc1ccccc1Cl | inconclusive: 22.1%
NC(=O)c1ccccc1OCC(=O)Nc1ccc2c(c1)OCCO2 | inactive: -27.5%
O=C(c1ccc(Cl)cc1)N1N=CCC1(O)c1ccc(Cl)cc1 (stereo not drawn) | inconclusive: -19.4%
CC(=O)N1c2ccc(S(=O)(=O)NCC3CCC(C(=O)N4CC(C)CC(C)C4)CC3)cc2CC1C (stereo not drawn) | inactive: 1.8%
CCOC(=O)c1sc(C)c2c1NC(C)(c1cccs1)NC2=O (stereo not drawn) | inactive: 3.8%
C=CCn1c(O)c(C=Nc2ccc(OC)cc2C)c(=O)[nH]c1=O | inactive: 3.6%

Shown with tabs: part of the list above.
Structure (SMILES)	inhibition
Cc1ccc(-c2noc(CCCN3C(=O)c4ccccc4C3=O)n2)cc1	inactive: -5.8%
Cc1cc(=O)[nH]c(SCC(=O)N2CCc3ccccc3C2)n1	inactive: -0.3%
COc1ccc2nc(SCC(=O)NCCc3ccccc3)[nH]c2c1	inconclusive: -88%
O=C(NNC(=S)NC1CC2C=CC1C2)c1ccncc1 (stereo not drawn)	inconclusive: -58.9%

The list goes on:

Structure (SMILES) | inhibition
CC1(C)CC(=O)C2=C(C1)NC(SCC(N)=O)=C(C#N)C21CCCCC1 | inactive: -17%
Cc1ccc(Oc2ncccc2NC(=O)CC2(CC(=O)O)CCCC2)c2c1CCC2 | inconclusive: -1.8%
COc1ccc(/C=N/Nc2nnc(-c3ncc[nH]3)c3ccccc23)cc1 | inactive: 0.8%
Cc1ccc(NC(=O)COc2ccccc2)cc1Cl | inconclusive: 6.6%
Cc1cc(C)nc(NC2=NCCN2C(=O)NC2CCCCC2)n1 | inconclusive: -21.1%
c1ccc(Oc2cccc3cccnc23)nc1 | inconclusive: -8.1%
COc1ccc(C(=O)C2CCCN(Cc3ccc(F)cc3F)C2)cc1F (stereo not drawn) | inconclusive: 26.5%
CN(C)/C=N/c1ncc(C(=O)c2ccc(Cl)cc2Cl)s1 | inactive: -3.4%
CN(Cc1ccccc1F)C(=O)c1sccc1-c1ccccc1 | inconclusive: 15.7%
CC(C)C1(C)N=C(c2ncccc2C(=O)O)NC1=O (stereo not drawn) | inactive: -14.2%
CC(=O)c1c(-c2ccccc2)[nH]c2ccccc12 | inconclusive: 9.9%
COc1cc(OC)c(C(=O)NCc2ccc3c(c2)OCO3)cc1OC | inconclusive: 17%
Cc1ccc(NC(=O)CCNC(=O)c2ccco2)cc1 | inactive: -1.4%
O=C1SCCC1NS(=O)(=O)c1ccc([N+](=O)[O-])cc1 (stereo not drawn) | inactive: -3.3%
COc1cccc(/C=N/NC(=O)c2cc3c(OC)ccc(OC)c3[nH]2)c1O | inconclusive: -8%
COc1ccc(NC(=O)C2CCOC2=O)cc1 (stereo not drawn) | inconclusive: -6.2%
Cc1cc(-c2onc3ccc(Cl)cc23)ccc1O | inactive: 5.8%
CC(C)(C)NC(=O)C1CCN(c2ccc(S(=O)(=O)N3CCOCC3)cc2Cl)CC1 | inactive: -4.5%
CC(C)(CO)CNC(=O)c1ccc2nc(Cc3cccc(Cl)c3)oc2c1 | inconclusive: -15.3%
Cn1c(=O)[nH]c(=O)c2c1nc(N1CCNCC1)n2Cc1ccccc1Cl | inconclusive: 14.1%
O=C(NCc1ccc2c(c1)OCO2)C(=O)NCC1OCCCN1S(=O)(=O)c1ccccc1 (stereo not drawn) | inactive: -0.1%
O=C(Oc1ccc(-c2nccc(-c3ccccn3)n2)cc1)c1cccc(C(F)(F)F)c1 | inconclusive: -9.2%
O=C(c1ccc(F)cc1)C1CCN(C(=O)Nc2ccc(F)cc2)CC1 | inactive: -19.8%
N#Cc1ccccc1CCN1C(=O)c2ccccc2C1=O | inconclusive: 3.6%

In the list so far, 3 have a tert-butyl group:
Structure (SMILES) | inhibition
CN(c1ccc(Cl)cc1)S(=O)(=O)c1nnc(NC(=O)C(C)(C)C)s1 | inconclusive: -19.2%
CCOP(=O)(C#CC(C)(C)C)C(C)(O)c1ccccc1 (stereo not drawn) | inconclusive: -5.1%
CC(C)(C)NC(=O)C1CCN(c2ccc(S(=O)(=O)N3CCOCC3)cc2Cl)CC1 | inactive: -4.5%

Later entries:

Structure (SMILES) | inhibition
Cc1ccc([N+](=O)[O-])cc1NC(=O)Nc1onc(C)c1C | inconclusive: -17.4%
COc1ccc(/C=C/C(=O)c2c(C)cc(C)[nH]c2=O)c2ccccc12 | inconclusive: -13.8%
O=C(Nc1ccc2c(c1)OCCO2)c1cc(-n2cnnc2)ccc1Cl | inactive: -40.4%
COc1cccc(-c2nnn(CC(=O)N3CCCCC3)n2)c1 | inconclusive: 6.6%
O=C(CNC(=O)c1ccccc1)c1ccccc1 | inactive: 0.4%
CC1CCC2(CC1)NC(=O)N(NC(=O)C1CCN(C(=O)c3ccc(Cl)cc3)CC1)C2=O (stereo not drawn) | inactive: -6.4%
COc1ccc(-c2csc(N(CC(C)C)C(=O)c3ccco3)n2)cc1 | inconclusive: -3.7%
CN(C)CCCNCCCNC(=O)/C(=N\O)c1ccccc1 | inconclusive: 36.6%
COc1cc(NC(=O)COC(=O)Cn2cnc3c2c(=O)n(C)c(=O)n3C)cc(OC)c1 | inactive: 1.1%
Cc1ccc(S(=O)(=O)NCCSC(C)(C)C)cc1 | inconclusive: 45.4%
CSCCC(NC(=O)c1ccccc1Br)C(=O)NNC(=O)c1ccco1 (stereo not drawn) | inconclusive: 3.3%
CCOP(=O)(c1ccccc1)c1nc(-c2ccc(F)cc2)oc1N1CCCCC1 (stereo not drawn) | inconclusive: 11.3%
Cc1cccc(Cl)c1OCCCN1CCOCC1 | inconclusive: -22.7%
CC(C)Cc1cc(C(=O)N(C)C2CCCN(Cc3ccccc3F)C2)n(C)n1 (stereo not drawn) | inactive: 0.6%
Cn1c(SCC(=O)N2CCCc3ccccc32)nc2cccnc21 | inconclusive: -2.2%
O=C(c1ccc2ccccc2c1)C1CCCN(C(=O)c2noc3c2CCCC3)C1 (stereo not drawn) | inactive: -2.5%
CN(C)/C=C/C(=O)c1ccc2noc(-c3cccc(F)c3)c2c1 | inactive: 7.3%
Cc1c(C2(c3c(C)n(C)n(-c4ccccc4)c3=O)C(=O)Nc3ccc(F)cc32)c(=O)n(-c2ccccc2)n1C | inconclusive: -10.2%
COc1ccc(-n2c(SCC(C)=O)nc3sc(C)c(C)c3c2=O)cc1 | inconclusive: 17.2%
CNC(=S)NNC(=O)c1cccs1 | inconclusive: 49.1%
COCCN(C(=O)CSc1ncccn1)c1c(N)n(Cc2ccccc2)c(=O)[nH]c1=O | inconclusive: 2.8%
